Values from PubChem BioAssay AID1259323 (Peter MacCallum Cancer Centre, 2017).

Purpose: 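Kinase knock-downs that weaken TRPV4 calcium entry after PAR2 activation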 (primary screen)
Cells: human HEK293 cells stably carrying inducible TRPV4
Reagents: siRNA pool against human genes
Challenge: PAR2 activation; agonist identity and dose not given
Measured: 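Real-time Fura-2 calcium after PAR2 activation; early peak and later plateau each as % of mock-transfected wells on the plate, mean of two plates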
Scale: TRPV4 plateau calcium, % of mock: higher = stronger sustained TRPV4 calcium entry than mock; PAR2 peak calcium, % of mock: higher = stronger early PAR2 calcium response than mock
Hit rule: 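Active if plateau calcium is under 90% of mock and early peak calcium stays over 79% of mock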
Here is an unselected part of 715 deposited reagents. 91 of them (13%) were called active. 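Active pools lower the sustained TRPV4 phase but spare the early PAR2 peak; PAR2 agonist and dose are not stated; pools repeat across wells.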 A reagent listed more than once was tested more than once; the source does not tell the runs apart. The record does not give: the amount of reagent, the time to read-out.

| TRPV4 plateau calcium, % of mock | PAR2 peak calcium, % of mock | outcome | gene |
| --- | --- | --- | --- |
| 97.2 | 104 | inactive | CERK |
| 95.1 | 95.8 | inactive | CLK2 |
| 96.3 | 93.3 | inactive | PI4KA |
| 105 | 103 | inactive | DGKA |
| 92.8 | 90.2 | inactive | PRKG2 |
| 88.6 | 92.3 | active | NPR2 |
| 80 | 79.4 | active | JAK3 |
| 88.1 | 87.9 | active | CHKA |
| 125 | 108 | inactive | CAMKV |
| 126 | 108 | inactive | FLT4 |
| 107 | 99.7 | inactive | PCK2 |
| 104 | 103 | inactive | CDKN2B |
| 121 | 109 | inactive | CIT |
| 92.8 | 96.8 | inactive | MAP3K20 |
| 102 | 95.4 | inactive | DUSP21 |
| 119 | 108 | inactive | NEK6 |
| 115 | 109 | inactive | PKN3 |
| 106 | 102 | inactive | EPHA3 |
| 92.2 | 88 | inactive | BRSK1 |
| 94 | 95.1 | inactive | BRSK1 |
| 117 | 108 | inactive | PIK3CD |
| 117 | 114 | inactive | PTK6 |
| 97.9 | 99.7 | inactive | ACVR2A |
| 101 | 101 | inactive | NADK |
| 93.4 | 92.4 | inactive | PDIK1L |
| 115 | 106 | inactive | JAK2 |
| 97.7 | 100 | inactive | BCKDK |
| 93.9 | 93.4 | inactive | MAP3K14 |
| 110 | 103 | inactive | PRKCB |
| 98.2 | 96.2 | inactive | LMTK2 |
| 109 | 102 | inactive | MAPK10 |
| 89.6 | 93.1 | active | HCK |
| 117 | 109 | inactive | BMPR1B |
| 112 | 106 | inactive | IRAK4 |
| 89.4 | 93.2 | active | TAOK3 |
| 101 | 95.9 | inactive | BTK |
| 113 | 103 | inactive | GRK1 |
| 109 | 103 | inactive | RFK |
| 91.5 | 101 | inactive | PIK3CB |
| 100 | 98.7 | inactive | STK32C |
| 98 | 106 | inactive | INSRR |
| 118 | 109 | inactive | RIOK1 |
| 108 | 107 | inactive | THNSL1 |
| 109 | 104 | inactive | MAP4K4 |
| 91.8 | 97.1 | inactive | SPHK1 |
| 90.4 | 81.7 | inactive | TSSK1B |
| 98.9 | 90.8 | inactive | TSSK1B |
| 114 | 103 | inactive | DYRK3 |
| 102 | 96.8 | inactive | YES1 |
| 104 | 97.5 | inactive | TBCK |
| 104 | 99.6 | inactive | RIPK4 |
| 86.3 | 98.1 | active | IGF2R |
| 117 | 107 | inactive | AURKC |
| 109 | 104 | inactive | PRAG1 |
| 101 | 100 | inactive | ADK |
| 109 | 96.4 | inactive | MAP3K7 |
| 102 | 101 | inactive | IKBKE |
| 92.4 | 97 | inactive | ROCK2 |
| 114 | 107 | inactive | PDGFRA |
| 94 | 93.6 | inactive | MAP3K1 |
| 109 | 102 | inactive | ZAP70 |
| 111 | 104 | inactive | GUCY2F |
| 111 | 106 | inactive | MVK |
| 112 | 99.6 | inactive | STK3 |
| 101 | 106 | inactive | TRIB1 |
| 102 | 99.3 | inactive | CSF1R |
| 95.4 | 101 | inactive | ADCK1 |
| 108 | 104 | inactive | MARK1 |
| 124 | 106 | inactive | AAK1 |
| 103 | 99.7 | inactive | MET |
| 95.1 | 99.4 | inactive | PAK5 |
| 98.6 | 96.6 | inactive | PGK2 |
| 96.2 | 98.9 | inactive | CDKN1B |
| 85 | 87.5 | active | UCKL1 |
| 85.1 | 90.4 | active | CMPK1 |
| 94.8 | 103 | inactive | STRADB |
| 103 | 100 | inactive | IPMK |
| 87.9 | 91.3 | active | STK25 |
| 91.3 | 92.3 | inactive | WNK1 |
| 104 | 105 | inactive | GUCY2EP |
| 94.3 | 98.4 | inactive | CDK9 |
| 103 | 102 | inactive | MAPK3 |
| 108 | 103 | inactive | PRKCE |
| 97.8 | 97.5 | inactive | PRKDC |
| 99 | 95.8 | inactive | PASK |
| 93.4 | 87.8 | inactive | PDK2 |
| 102 | 99.7 | inactive | CASK |
| 99.2 | 107 | inactive | MYLK4 |
| 98.1 | 95 | inactive | TSSK2 |
| 96.3 | 102 | inactive | ALPK2 |
| 89.4 | 88.9 | active | PSKH1 |
| 113 | 106 | inactive | EFNA5 |
| 106 | 100 | inactive | AK4 |
| 94.1 | 89.9 | inactive | MAP3K11 |
| 74.5 | 75.5 | inactive | GUCY2D |
| 91.6 | 87.8 | inactive | ETNK2 |
| 86.4 | 93.4 | active | STK32B |
| 87.6 | 97.1 | active | KALRN |
| 105 | 106 | inactive | VRK1 |
| 89.2 | 99.5 | active | COQ8B |
| 94.7 | 96 | inactive | LMTK3 |
| 93.8 | 92.7 | inactive | UHMK1 |
| 89.6 | 95.8 | active | SMG1 |
| 111 | 108 | inactive | NUCKS1 |
| 100 | 103 | inactive | CSNK1A1L |
| 102 | 101 | inactive | CDKL4 |
| 70.9 | 79.5 | active | SIK2 |

Laid out differently: entries from further up
TRPV4 plateau calcium, % of mock	PAR2 peak calcium, % of mock	outcome	gene
109	102	inactive	ZAP70
111	104	inactive	GUCY2F
111	106	inactive	MVK
112	99.6	inactive	STK3
101	106	inactive	TRIB1
102	99.3	inactive	CSF1R
95.4	101	inactive	ADCK1
108	104	inactive	MARK1
124	106	inactive	AAK1
103	99.7	inactive	MET
95.1	99.4	inactive	PAK5
